Measurements as given in paper PMC4747383, “Design of a peptidic inhibitor that targets the dimer interface of a prototypic galectin” (Oncotarget, 2015).
Results are given in words; binding and its absence hold for the method and conditions named. Some entries that bind do so weakly or less than the wild type.

Protein sequences, listed by entry. Tags and fused reporters are not part of them. Residues count along the entry.
UniProt P47929, residues 2-136: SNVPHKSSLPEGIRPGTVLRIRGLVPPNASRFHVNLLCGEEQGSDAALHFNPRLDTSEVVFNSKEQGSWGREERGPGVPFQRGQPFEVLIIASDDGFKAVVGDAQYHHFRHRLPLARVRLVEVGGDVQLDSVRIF

Target: recombinant human galectin-7 (human) (UniProt P47929)
Experiment: native gel or EMSA; data not shown; hGal-7 (0.5 uM) with increasing concentrations of hGal-7(13-25), formation of homodimers measured; both purified

IRPGTVLRIRGLV (C-terminal amide) [hGal-7(13–25) peptide]
binding: binds
